# The list shows a part of the results.
# System: T1, CTL2-GFP (C. trachomatis L2/434/Bu, GFP-expressing)
# T1 construct: L2/434/Bu, GFP-expressing
# Set-up: species or system HeLa; Intracellular C. trachomatis growth in HeLa cells, bulk GFP fluorescence relative to DMSO
# Conditions: bulk GFP, single well; 28.5 h, 10 µM; inhibitor
row,Structure (SMILES),% of control remaining
1,O=C(C1CCCN(C2CCN(Cc3ccccc3)CC2)C1)N1CCN(c2ccccc2)CC1 (centres unmarked) [CBK265440G],124.658%
2,O=C(Nc1ccc2nc(-c3ccc(-c4nc5ccc(NC(=O)c6cccs6)cc5[nH]4)cc3)[nH]c2c1)c1cccs1 [CBK261590],95.8766%
3,COC(=O)c1ccsc1NC(=O)CN1CCN(Cc2ccc3c(c2)OCO3)CC1 [CBK267940],110.497%
4,O=C(NCc1cccnc1-n1cccn1)c1c[nH]c(C(=O)N2CCCC2)c1 [CBK298263],112.737%
5,COc1ccc(C(C)NC2CCN(c3ccccn3)CC2)cc1F (centres unmarked) [CBK304146],117.428%
6,COC(=O)c1ccccc1OC(=O)COc1ccc(Cl)cc1Br [CBK268733],138.052%
7,Cc1ccc2c(c1)cc(C(=O)N1CCC(C(=O)NCCc3ccc(Cl)cc3)C1)n2C (centres unmarked) [CBK285926],120.934%
8,O=C(C[C@@H]1O[C@H](CNS(=O)(=O)c2ccccc2)[C@@H](O)[C@H]1O)N1CCc2ccccc21 [CBK288916],111.15%
9,Cc1ccc(-n2c(SCC(=O)Nc3ccccc3C#N)nnc2-c2cc(Br)ccc2O)c(C)c1 [CBK268743],76.2951%
10,COC1C(O)C(CO)OC1n1cc(F)c(=S)[nH]c1=O (centres unmarked) [CBK201168],152.523%
11,O=c1c(-c2nc3ccccc3s2)coc2c(CN3CCCCC3)c(O)ccc12 [CBK262161],104.129%
12,Cc1c(C(=O)NC2CCCN(c3ncccn3)C2)cnn1C(C)(C)C (centres unmarked) [CBK305652],115.199%
13,CCOc1ccc(-c2cncc(N[C@@H](C)c3ccccc3)n2)cc1 [CBK065720],160.553%
14,CCc1c(C)nc2c(C(=O)NCCOC)cnn2c1C [CBK162143],106.571%
15,Cc1c(C(=O)Nc2sc3c(c2C(=O)NCc2cccnc2)CCC3)oc2ccccc12 [CBK269491],159.642%
16,CC(=O)Nc1cccc(C(=O)OCC(=O)N2CCC(C)CC2)c1 [CBK305905],110.162%
17,CN(C)CCN(C)c1cccc(/C=C/c2ccccc2)n1 [CBK036826],125.112%
18,CC(C)(C)OC(=O)N1CCN(c2ccnc(Cl)n2)CC1 [CBK002095],96.207%
19,COCC(=O)N1CC[C@H](c2nnc(-c3ccc(C)cc3)o2)C1 [CBK289410],116.869%
20,CC(=O)Nc1ccc(S(=O)(=O)Nc2ccc(C(=O)N3CCOCC3)cc2)cc1 [CBK034564],87.8908%

row,Structure (SMILES),% of control remaining
1,COC(=O)NC(NC(=O)OC)C(=O)c1ccccc1 [CBK020208],125.105%
2,COc1ncccc1-c1cccnc1-n1ccnc1 [CBK176872],137.213%
3,NNC(=O)Nc1ccc(Cc2ccc(NC(=O)NN)cc2)cc1 [CBK262017],138.561%
4,COc1ccc([C@H]2CN(C(C)=O)[C@@H]3CCN(CC4CC4)C[C@H]23)cc1 [CBK285502],108.131%
5,CC(Sc1ccccc1)C(=O)NCCN1CCOCC1 (centres unmarked) [CBK269332],133.505%
6,Cc1noc(C)c1S(=O)(=O)NCc1cc(C)n(C)n1 [CBK062155],91.814%
7,O=C(Nc1ccccc1)NC1CC2CCC(C1)N2Cc1nnnn1Cc1ccco1 (centres unmarked) [CBK085071],120.143%
8,COc1ccc(CC(=O)N2CCC(c3cccc(Cc4ccccc4C)n3)CC2)cc1 [CBK286232],110.994%
9,C[C@]12CN(C(=O)C3CC3)C[C@H]1NC(=O)c1ccccc1C2=O [CBK281660],105.394%
10,O=[N+]([O-])c1ccccc1CN1CCN(Cc2cccc(Oc3ccccc3)c2)CC1 [CBK264307],110.001%
11,CCc1cc(O)n2nc(C)c(-c3cccs3)c2n1 [CBK283730],125.007%
12,O=C(CC1c2ccccc2Oc2ccccc21)Nc1ccc(Cc2ccncc2)cc1 [CBK263271],110.81%
13,O=C1CSC2(CCCCC2)N1Nc1ccccc1 [CBK020047],111.174%
14,CC(C)c1ccc(S(=O)(=O)Nc2cc(F)c(F)c(F)c2)cc1 [CBK045028],60.6031%
15,O=P(O)(CN1CCCCCC1)CN1CCCCCC1 [CBK262311],100%
16,O=S(=O)(c1ccccc1)c1nc(-c2ccco2)oc1NCc1cccnc1 [CBK287610],115.8%
17,C=CCNC(=O)c1ccc(-c2cccc(N(C)C)c2)nc1NCc1cccnc1 [CBK076566],170.873%
18,CCn1cc(C(=O)O)c(=O)c2cnc(N3CCN(C(=S)Nc4ccc5c(c4)OCO5)CC3)nc21 [CBK267930],100.419%
19,CC(=O)N1CCC[C@H]2NC(=O)CNC(=O)C3(C/C=C/C[C@H]21)CCN(Cc1cc[nH]n1)CC3 [CBK292164],90.1052%
20,COc1ccc(Oc2nccnc2N2CCN(CCOc3ccccc3)CC2)cc1OC [CBK083061T],130.118%

row,Structure (SMILES),% of control remaining
1,CN1CCN(C)C(COc2nc3cc(Cl)c(Cl)cc3nc2N2CCCC2)C1 (centres unmarked) [CBK115294],107.274%
2,Cc1cc(C(=O)N2CCc3c(sc4ncnc(N)c34)C2)c(C)s1 [CBK304980],137.869%
3,CCCOc1ccc(-c2nn(-c3ccccc3)cc2/C=C2\SC(=S)N(CC(=O)O)C2=O)cc1 [CBK264525],107.116%
4,COc1cc(NC(=O)N2CCC(C(=O)O)CC2)cc(OC)c1OC [CBK156076],95.0031%
5,Cc1ccccc1Cc1cccc(C2CCN(S(=O)(=O)c3cn(C)nc3C)CC2)n1 [CBK286141],109.118%
6,COc1ccc(C(C)C)cc1-c1nccnc1N[C@@H](CO)C(C)C [CBK036711],108.05%
7,CCOC(=O)N/N=C1\CCCCC1CC (centres unmarked) [CBK016112],143.22%
8,CC(=O)Nc1ccc(C(=O)Nc2ccc(S(N)(=O)=O)cc2)cc1 [CBK261600],115.782%
9,COC(=O)Nc1ncc(CN2C(=O)c3ccccc3C2=O)s1 [CBK268434],82.0335%
10,COCC(=O)Nc1ccc([C@@H](O)[C@H]2COCC(=O)N2C)cc1 [CBK289058],143.563%
11,NS(=O)(=O)c1ccc(NCc2ccccc2OCc2ccccc2F)cc1 [CBK268935],101.752%
12,O=C(Cc1ccccc1F)N1CCC(n2cnc3cccnc32)CC1 [CBK283635],122.647%
13,COc1ccc(-c2ccc(OC)cc2C(=O)Nc2cccc(-n3cccn3)c2)cc1 [CBK285818],139.216%
14,c1ccc(-c2onc3cc4c(cc23)OCCO4)cc1 [CBK287869],116.247%
15,CCCc1nnc2sc(C3CCC(=O)N(CC(C)C)C3)nn12 (centres unmarked) [CBK307207],132.545%
16,CC(Sc1nc2ccccc2[nH]1)C(=O)O (centres unmarked) [CBK263063],99.2591%
17,Oc1ccc(-c2cncc(-c3ccc(F)cc3)n2)cc1 [CBK123794],120.618%
18,Cc1nnc(SCc2cc(=O)[nH]c(N3CCN(C)CC3)n2)s1 [CBK270106],156.188%
19,CCOc1cc(/C=N/O)c(Br)cc1O [CBK288359],170.865%

# Looked up one by one from above, 3 records:
row,Structure (SMILES),% of control remaining
9,COC(=O)Nc1ncc(CN2C(=O)c3ccccc3C2=O)s1 [CBK268434],82.0335%
8,CC(=O)Nc1ccc(C(=O)Nc2ccc(S(N)(=O)=O)cc2)cc1 [CBK261600],115.782%
11,NS(=O)(=O)c1ccc(NCc2ccccc2OCc2ccccc2F)cc1 [CBK268935],101.752%

# Source: publication PMC12040169 (PLOS Biology, 2025)
